Results deposited as PubChem BioAssay AID686937 (Drosophila RNAi Screening Center, 2013)

Assay: 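Genes whose loss weakens secretory pathway function in fly cells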 (primary screen)
System: Drosophila S2 cells expressing secreted horseradish peroxidase
Reagents: long dsRNA against Drosophila genes
Duration: about 5.5 days (5 days dsRNA, then 12 h reporter induction)
Conditions: reporter expression induced after 5 days of dsRNA, read 12 h later; inducer not stated
Measurement: 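After 5 days of dsRNA and 12 h of reporter induction, medium peroxidase read by chemiluminescence and scored as per-plate z-score; higher values mean more reporter released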
Scale: z-score: higher = more reporter secreted into medium
In all, the deposit lists about 23,000 reagents; shown is an unselected part of those that have a named target and a result. 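Reduced-secretion tags in replicate 1 do not always agree with the z-scores; no criterion for assigning the tags was given.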 Names joined by + are all predicted targets of the reagent. Not all columns of the deposit are shown. Reagent sequences are not shown. The record does not give: the amount of reagent.

gene knocked down,dsRNA,"z-score, replicate 1","z-score, replicate 2","z-score, replicate 3"
CG6712,DRSC02981,0.53,0.12,0.29
CG6712,DRSC21690,-0.7,-0.51,
Cat (Catalase),DRSC11110,0.33,-0.13,
Tie (Tie-like receptor tyrosine kinase),DRSC08104,-1,-0.52,
Tie (Tie-like receptor tyrosine kinase),DRSC08702,0.44,0.54,
Ccn,DRSC09504,0.07,0.4,
Ccn,DRSC09506,-1.96,-1.15,
Ccn,DRSC10062,0.25,0.5,
Ccn,DRSC10063,-0.2,-0.18,
CG8746,DRSC07257,0.47,0.49,
ATP8B (ATPase 8B),DRSC12883,0.12,0.23,
ATP8B (ATPase 8B),DRSC14961,0.4,0.43,
CG14238,DRSC14732,0.41,0.7,
CG14518,DRSC14870,0.27,0.58,
CG9825,DRSC04569,0.42,0.3,
rho-4 (rhomboid-4),DRSC19761,0.2,0.42,
rho-4 (rhomboid-4),DRSC19762,0.38,0.41,
TM9SF3 (Transmembrane 9 superfamily protein member 3),DRSC09747,-0.17,-0.07,
Got1 (Glutamate oxaloacetate transaminase 1),DRSC07177,0.36,0.11,
LSm7 (Like Sm 7),DRSC02251,-0.12,-1.02,
Prestin,DRSC10507,0.38,0.26,
ap (apterous),DRSC04917,0.48,0.48,
Ctl1 (Choline transporter-like 1),DRSC08303,0.38,0.01,
egl (egalitarian),DRSC04682,-0.03,0.29,
CG18343,DRSC06726,0.27,0.46,
eys (eyes shut),DRSC00113,-0.63,0.42,
eys (eyes shut),DRSC00402,0.12,0.08,
eys (eyes shut),DRSC00403,0.15,0.25,
eys (eyes shut),DRSC00695,0.33,0.34,
CG3502,DRSC04381,0.28,0.39,
CG7655,DRSC16275,0.29,0.42,
sug (sugarbabe),DRSC06855,-0.01,0.06,
CG13177,DRSC06303,0.04,-0.29,
Dhc16F (Dynein heavy chain at 16F),DRSC20242,-0.02,0.09,
CG31223,DRSC15115,0.18,0.31,
CG34039,DRSC09318,0.58,0.15,
CG6013,DRSC15947,-0.03,0.09,

The list goes on (2 carried over from the part before).
gene knocked down,dsRNA,"z-score, replicate 1","z-score, replicate 2","z-score, replicate 3"
CG34039,DRSC09318,0.58,0.15,
CG6013,DRSC15947,-0.03,0.09,
CG15708,DRSC06579,0.54,0.39,
Mal-A7 (Maltase A7),DRSC06077,0.49,0.2,
CG4269,DRSC04457,0.45,0.16,
Dyro (Dpt-YFP repressor by overexpression),DRSC10598,0.1,0.33,
CG2841,DRSC17699,0.45,0.52,0.58
CG2841,DRSC18824,0.28,0.33,
CG2841,DRSC22106,-0.35,0.49,
Hsp27 (Heat shock protein 27),DRSC11190,0.36,0.17,
MESR4 (Misexpression suppressor of ras 4),DRSC06901,0.46,0.33,
Rh4 + sina,DRSC11396,0.39,0.48,
rin (rasputin),DRSC17045,-1.8,-0.88,
CG32536 + CG32537,DRSC20074,-0.63,-1.07,0.35
CG32450,DRSC11546,0.49,0.15,
Vps50 (Vacuolar protein sorting 50),DRSC06910,0.41,0.29,
ftz-f1 (ftz transcription factor 1),DRSC11347,0.62,0.07,
kud (kuduk),DRSC11086,-0.38,-0.09,
CG32212 + hpRNA:CR33940,DRSC09618,0.53,0.27,
CG33090,DRSC01908,-0.12,0.1,
DMAP1 (DNA methyltransferase 1 associated protein 1),DRSC06044,0.37,0.34,
dnt (doughnut on 2),DRSC03522,-0.05,0.06,
CG18823,DRSC18168,0.42,0.41,
DNaseII (Deoxyribonuclease II),DRSC16310,0.26,0.27,
CG1428,DRSC03708,0.14,0.09,
CG4734,DRSC06885,0.32,0.43,
CG4734,DRSC22072,0.55,-0.45,
MED27 (Mediator complex subunit 27),DRSC12205,-1.1,-0.97,
fln (flightin),DRSC11346,0.24,0.16,
Mdr50 (Multi drug resistance 50),DRSC07467,0.55,0.18,
"ATPsynC (ATP synthase, subunit C)",DRSC15236,-0.39,-1.25,
qkr58E-2 (quaking related 58E-2),DRSC04710,0.49,0.3,
CG7857,DRSC10925,0.1,0.09,
CG14418,DRSC18637,0.01,-0.26,
CG2187,DRSC15425,0.48,0.4,
alpha-Cat (alpha Catenin),DRSC11917,0.3,0.36,0.31
CG13074,DRSC09957,0.38,0.26,
kcc (kazachoc),DRSC04316,0.24,0.01,
kcc (kazachoc),DRSC04516,0.31,0.39,
Spg7 (Paraplegin),DRSC18469,0.16,0.25,
rb (ruby),DRSC18826,0.41,-0.77,
CG33169,DRSC11853,-0.5,-0.98,
Tsp42Er (Tetraspanin 42Er),DRSC06183,0.43,0.34,
CG9541,DRSC03257,0.22,0.14,
CG1910,DRSC15400,0.18,-0.05,
CG5254,DRSC18611,0.38,0.34,
Jhbp15 (Juvenile hormone binding protein 15),DRSC15217,-0.05,-0.69,
Ccdc85,DRSC00501,-1.16,-1.31,
Mvd (Mevalonate diphosphate decarboxylase),DRSC20096,0.12,0.06,
Ir85a (Ionotropic receptor 85a),DRSC14382,0.22,0.1,
Ugt36E1 (UDP-glycosyltransferase family 36 member E1),DRSC02599,0.23,0.15,
CG5742,DRSC06949,0.17,0.19,
Lcp2 (Larval cuticle protein 2),DRSC07456,0.46,0.3,
Alp4 (Alkaline phosphatase 4),DRSC14116,-0.04,0.25,
Mcm7 (Minichromosome maintenance 7),DRSC11219,0.09,-0.13,
Rubicon,DRSC17889,0.34,0.24,
NC2alpha (Negative Cofactor 2alpha),DRSC04059,0.46,0.29,
CG10903,DRSC14281,0.01,-1.07,
CG3704,DRSC18174,0.41,0.37,
CG3704,DRSC18645,0.42,0.38,
nsl1 (non-specific lethal 1),DRSC15625,-2.88,-2.28,
CG10616,DRSC09750,0.04,-0.02,
CG16986,DRSC08502,0.49,0.26,
CG5866,DRSC15900,0.6,0.28,
Srp9 (Signal recognition particle 9),DRSC10973,-0.63,-0.41,
CG11211,DRSC04851,0.2,0.38,
Trf4-1 (Topoisomerase related function 4-1),DRSC17775,0.39,0.68,
CG11722,DRSC14358,0.27,0.23,
P5CDh1 (delta-1-Pyrroline-5-carboxylate dehydrogenase 1),DRSC11801,0.49,0.56,
